Results are given in words; binding and its absence hold for the method and conditions named. Binding seen in cells or lysates may run through a third protein. Some results given as binding are weak or reduced against the parent protein; the word gives no strength.
Biological target: butyrylcholinesterase (human (endogenous in serum)) (UniProt P06276)
Assay: co-IP; fraction 12 of the iodixanol density gradient of human serum; 10 µg mouse anti-BChE monoclonal antibody 3E8 immobilised on AminoLink Plus Coupling Resin (Pierce Co-IP Kit); overnight at 4 °C; washed two times with 200 µL IP Lysis/Wash Buffer; eluate identified by mass spectrometry; quenched resin without antibody as control

By UniProt entry, the sequences of proteins in these tests, tags left out. Residues count along the entry.
UniProt P06276, residues 29-602: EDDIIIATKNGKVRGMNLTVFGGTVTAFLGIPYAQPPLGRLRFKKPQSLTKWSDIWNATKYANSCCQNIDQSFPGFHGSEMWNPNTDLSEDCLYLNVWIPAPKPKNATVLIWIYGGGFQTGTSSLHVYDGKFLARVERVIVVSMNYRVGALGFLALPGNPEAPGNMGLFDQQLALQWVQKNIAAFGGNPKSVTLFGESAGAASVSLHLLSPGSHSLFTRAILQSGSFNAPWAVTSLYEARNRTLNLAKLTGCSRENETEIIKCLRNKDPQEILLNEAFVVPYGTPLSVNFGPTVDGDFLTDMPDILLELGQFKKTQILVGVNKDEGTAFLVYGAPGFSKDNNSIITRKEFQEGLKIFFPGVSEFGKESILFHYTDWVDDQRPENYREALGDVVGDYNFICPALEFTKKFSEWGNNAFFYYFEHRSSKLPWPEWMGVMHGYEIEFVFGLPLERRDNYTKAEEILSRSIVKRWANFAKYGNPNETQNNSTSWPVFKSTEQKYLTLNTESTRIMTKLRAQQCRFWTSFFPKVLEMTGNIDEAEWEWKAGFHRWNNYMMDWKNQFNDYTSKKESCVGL
UniProt P02768, residues 25-609: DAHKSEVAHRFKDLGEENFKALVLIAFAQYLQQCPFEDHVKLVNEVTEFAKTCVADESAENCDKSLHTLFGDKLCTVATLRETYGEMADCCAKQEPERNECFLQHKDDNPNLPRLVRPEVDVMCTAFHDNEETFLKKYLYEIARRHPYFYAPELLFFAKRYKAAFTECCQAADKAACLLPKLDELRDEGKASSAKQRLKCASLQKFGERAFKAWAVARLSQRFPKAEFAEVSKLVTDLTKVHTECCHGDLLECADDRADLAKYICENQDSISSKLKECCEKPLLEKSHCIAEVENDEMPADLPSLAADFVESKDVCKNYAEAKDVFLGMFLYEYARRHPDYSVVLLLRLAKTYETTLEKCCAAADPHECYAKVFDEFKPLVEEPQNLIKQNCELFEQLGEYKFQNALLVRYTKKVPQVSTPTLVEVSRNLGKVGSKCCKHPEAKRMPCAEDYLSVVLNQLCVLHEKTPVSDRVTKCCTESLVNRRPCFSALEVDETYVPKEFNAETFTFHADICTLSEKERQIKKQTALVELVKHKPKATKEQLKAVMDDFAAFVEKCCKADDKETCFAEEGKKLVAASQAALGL

Substance: serum albumin (from UniProt P02768 25-609)
- binding: binds
